PubChem BioAssay AID602313 (National Center for Advancing Translational Sciences (NCATS), 2012)
About 760 (0.19%) of roughly 390,000 compounds were called active. The shares of active, inactive and inconclusive entries below differ from those in the screen. Calls come from the whole dose curve; as a rule, active = well fitted inhibition curve with a large enough effect; inconclusive = small, poorly fitted or top-dose-only effect; inactive = flat fitted curve, though single readings scatter. Where the call is inconclusive, the potency comes from a doubtful curve fit.

Assay: qHTS for Inhibitors of Vif-A3F Interactions: qHTS; note: nearly all actives have a fitted effect of over 65% in size
Settings: HeLa A3F-eYFP + Vif (tagged APOBEC3F with the HIV-1 protein that degrades it), YFP fluorescence increase; series mostly up to 46.1 µM
Summary of the method: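 HeLa cells stably expressing Vif plus C-terminally eYFP-tagged A3F were seeded, incubated overnight at 37 deg C, dosed with compound, incubated overnight again at 37 deg C. Yellow fluorescence (Ex 488/Em 500-530) reported blocked Vif-mediated A3F-eYFP degradation.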
Potency is the fitted concentration of half-maximal effect.

Row | SMILES | Potency
1 | Cc1ccc(NC(=O)c2c3c(nc4ccccc24)CCC3)cc1 | inconclusive: 35.5 µM [inhibitor, single point]
2 | COc1cccc(/C=C2\SC(=S)N(CCCC(=O)Nc3cc(C)on3)C2=O)c1 | inconclusive: 5.62 µM [inhibitor, single point]
3 | O=C(Cn1c(=O)c2ccccc2n(CC(=O)Nc2ccc(Cl)cc2)c1=O)NCCc1ccccc1 | inconclusive: 3.16 µM [inhibitor, full curve, poor fit]
4 | O=C(Oc1cccc(C(=S)N2CCOCC2)c1)c1ccc([N+](=O)[O-])cc1[N+](=O)[O-] | inconclusive: 12.6 µM [inhibitor, partial curve, poor fit]
5 | Cc1ccc(S(=O)(=O)NCCCCCC(=O)NCCc2ccccc2)cc1 | inconclusive: 22.4 µM [inhibitor, single point]
6 | S=C(NCCc1ccccc1)N/N=C/c1c(Cl)cccc1Cl | inactive
7 | N#CCCn1cc(C=C(C#N)C#N)c(-c2ccc(Cl)cc2)n1 | inconclusive: 22.4 µM [inhibitor, single point]
8 | Cc1cccc(S(=O)(=O)NNC(=O)Cc2cccn2C)c1 | inactive
9 | Cc1cc(C)c(/C=C(\C#N)S(=O)(=O)c2ccccc2)[nH]1 | inconclusive: 22.4 µM [inhibitor, single point]
10 | Cc1ccc(NC(=O)COC(=O)Cc2cccs2)cc1S(=O)(=O)N1CCOCC1 | inconclusive: 5.01 µM [inhibitor, partial curve]
11 | CCS(=O)(=O)N1N=C(c2cccs2)CC1c1cc2cc(C)ccc2nc1Cl (stereo not drawn) | inconclusive: 11.2 µM [inhibitor, partial curve, poor fit]
12 | CCOC(=O)CSc1c(-c2cccs2)[nH]c2ccccc12 | inactive
13 | CCCCCCCNC1=CC(=O)CC(c2ccccc2)C1 (stereo not drawn) | inactive
14 | Cc1ccc(S(=O)(=O)N2CCN(C(=O)COC(=O)c3nc(Cl)ccc3Cl)CC2)c(C)c1 | inconclusive: 35.5 µM [inhibitor, single point]
15 | CC(=Nc1ccc(C)cc1)c1sc2ccccc2c1O | inconclusive: 10 µM [inhibitor, partial curve]
16 | CN(C)c1ccc(C(=O)/C=C/c2ccc(Br)cc2)cc1 | inactive
17 | CC(C)(C)C(=O)NC(=S)NNC(=O)c1sc2ccccc2c1Cl | inactive
18 | Fc1ccc(-[n+]2nc(Nc3ccccc3)sc2-c2c(Cl)cccc2Cl)cc1 | inconclusive: 35.5 µM [inhibitor, single point]
19 | Nc1nnnn1/N=C/c1cc(Cl)cc(Cl)c1O | inconclusive: 35.5 µM [inhibitor, single point]
20 | Cc1c(CC(=O)N2CCN(C(=O)C3COc4ccccc4O3)CC2)c(=O)oc2cc(O)c(Cl)cc12 (stereo not drawn) | inactive
21 | CNCCOc1nc(N2CCOCC2)nc(C)c1[N+](=O)[O-] | inconclusive: 3.16 µM [inhibitor, single point]
22 | COc1cc(OC)cc(C2=NC3(CCC(C)CC3)NC2=S)c1 (stereo not drawn) | inconclusive: 3.55 µM [inhibitor, partial curve, poor fit]

Row | SMILES | Potency
23 | CCOC(=O)N1CCN(Cc2nc3cc(NC(C)=O)ccc3n2C(C)C)CC1 | inconclusive: 3.98 µM [inhibitor, single point]
24 | Cc1cccc2cc3c(N)c(C(=O)Nc4ccc(N5CCOCC5)cc4)sc3nc12 | inconclusive: 25.1 µM [inhibitor, single point]
25 | COc1cc(CNc2ccc3[nH]c(=O)[nH]c3c2)ccc1OCc1ccc(F)cc1Cl | inconclusive: 3.55 µM [inhibitor, single point]
26 | Cc1nn(CCCC(=O)Nc2ccccn2)c(C)c1[N+](=O)[O-] | inconclusive: 35.5 µM [inhibitor, single point]
27 | c1coc(-c2nc(-c3ccco3)c(-c3ccco3)nc2-c2ccco2)c1 | inconclusive: 35.5 µM [inhibitor, single point]
28 | COC(=O)C1=C(C)N(c2ccccc2)/C(=C/c2cccs2)C1=O | inconclusive: 35.5 µM [inhibitor, single point]
29 | COc1cc2oc(=O)cc(-c3ccc(-c4ccc(N(C)C)cc4)cc3)c2c(OC)c1OC | inconclusive: 25.1 µM [inhibitor, single point]
30 | COc1cc2cnc(-c3ccccc3)c(-c3cc(OC)c(OC)c(OC)c3)c2cc1OC | inactive
31 | CC(=O)/C(=N\Nc1ccc(Cl)cc1Cl)Sc1nnc(-c2ccccc2)n1-c1ccccc1 | inactive
32 | COc1ccc(C(=O)NCCc2ccccc2)cc1OC | inconclusive: 3.16 µM [inhibitor, single point]
33 | COC(=O)c1c(-c2cccnc2)csc1NC(=O)c1ccc2c(c1)OCO2 | active: 10 µM
34 | CCc1nc(SCC(=O)Nc2nnc(C(C)C)s2)n[nH]1 | inconclusive: 35.5 µM [inhibitor, single point]
35 | Cc1ccc(NC(=O)c2sc3nc(-c4cccs4)ccc3c2N)cc1F | inconclusive: 12.6 µM [inhibitor, partial curve, poor fit]
36 | c1cncc(-c2nc(NCc3cccs3)c3ccccc3n2)c1 | active: 17.8 µM
37 | C=CCN1C(=O)/C(=C/c2ccc(O)cc2)S/C1=N/c1nccs1 | inconclusive: 3.55 µM [inhibitor, partial curve, poor fit]
38 | O=C(c1ccc([N+](=O)[O-])cc1)N1CCC(Cc2ccccc2)CC1 | inconclusive: 35.5 µM [inhibitor, partial curve, poor fit]
39 | N#C/C(=C\C=C\c1ccccc1)C(=O)NCc1ccco1 | inconclusive: 35.5 µM [inhibitor, partial curve, poor fit]
40 | COc1ccc(/C=C/C(=O)c2ccc(C(=O)/C=C/c3ccc(OC)c(OC)c3)cc2)cc1OC | inconclusive: 3.55 µM [inhibitor, full curve, poor fit]
41 | COc1ccc(C2=NN(C(=O)c3ccccc3)C(c3ccc(OC)c(OC)c3)C2)cc1OC (stereo not drawn) | inactive
42 | Cc1ccc(C(=O)Oc2csc(=S)n2C(=O)c2ccc(C)cc2)cc1 | inactive
43 | CCOc1ccc(CNC(=O)CSc2nnc(C)c3c(C)n(-c4ccc(Cl)cc4)nc23)cc1 | inconclusive: 35.5 µM [inhibitor, single point]

An excerpt from above in order of molar mass, low to high:
Row | SMILES | Potency
9 | Cc1cc(C)c(/C=C(\C#N)S(=O)(=O)c2ccccc2)[nH]1 | inconclusive: 22.4 µM [inhibitor, single point]
12 | CCOC(=O)CSc1c(-c2cccs2)[nH]c2ccccc12 | inactive
10 | Cc1ccc(NC(=O)COC(=O)Cc2cccs2)cc1S(=O)(=O)N1CCOCC1 | inconclusive: 5.01 µM [inhibitor, partial curve]
